Laboratory results as given in PMC7703681 (Journal of medicinal chemistry, 2020).

Conditions: male, Sprague Dawley, rat, in vivo, po

C[C@](O)(Cn1cc(F)cn1)C(=O)Nc1cnc(C#N)c(C(F)(F)F)c1 [21a, (S)-N-(6-Cyano-5-(trifluoromethyl)pyridin-3-yl)-3-(4-fluoro-1H-pyrazol-1-yl)-2-hydroxy-2-methylpropanamide]
blood level at 24 h in concentration versus time plot: vast majority of 21a eliminated by 24 h
